Results reported in PubChem BioAssay AID493014 (National Center for Advancing Translational Sciences (NCATS), 2011).
The list shows a part of the results. The main result of the screen is listed elsewhere. These columns were measured beside it and carry no call. Most of these compounds were active or inconclusive in the main read-out, so they are no random draw. The note in brackets gives the kind of curve behind each potency; many fits are weak.

Assay: qHTS Assay to Find Inhibitors of Chronic Active B-Cell Receptor Signaling
Details: ABC-DLBCL IkBa-CBG/CBR reporter, luminescence ratio (green luciferase fused to IkBa over red control in TMD8 lymphoma cells), 4 h
Procedure, shortened: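 Compounds up to 46 uM were incubated four hours with TMD8 cells whose green CBG68 luciferase is fused to IkappaBalpha; red CBR luminescence normalised the signal, and concentration-effect curves were fitted to fusion, red and ratio data.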

[1] = measured here: CBR red luminescence, cell number
[2] = measured here: IkBa-CBG green luminescence

Row | SMILES | AC50 [1] | AC50 [2]
1 | Cc1ccc(NC(NC(=O)c2ccccn2)C(Cl)(Cl)Cl)cc1 (centres undefined) | 17.8 µM [falling, single point] | 
2 | CCc1nnc(NS(=O)(=O)c2ccc(N/C=C\C(=O)c3cccc4ccccc34)cc2)s1 | 25.9 µM [rising, single point] | 
3 | Cc1ccccc1NC1=NCC(c2ccc([N+](=O)[O-])cc2)S1 (centres undefined) | 1 µM [falling, full curve] | 
4 | CCN(CC)S(=O)(=O)c1ccc(Cl)c(C(=O)OC)c1 | 13 µM [rising, partial curve, poor fit] | 
5 | Cc1cc(C)n(C(N)=NC(=O)c2ccc([N+](=O)[O-])cc2)n1 | 0.316 µM [rising, full curve, poor fit] | 
6 | CCOC(=O)c1sc(NC(=O)c2sccc2C)cc1C | 8.2 µM [falling, partial curve] | 
7 | CCOC(=O)CSC1=C(C#N)C(c2ccccc2OCC)C(C#N)C(=O)N1 (centres undefined) | 35.5 µM [rising, single point] | 35.5 µM [falling, partial curve, poor fit]
8 | CC(=O)Nc1ccc(S(=O)(=O)N2CCCC2C(=O)Nc2ccc3c(c2)OCCO3)cc1 (centres undefined) | 3.98 µM [rising, single point] | 
9 | N#CC(C#N)=C1C=CC=CN1/C(=C\c1ccco1)C(=O)c1ccc(-c2ccccc2)cc1 | 25.9 µM [falling, single point] | 23.1 µM [rising, partial curve, poor fit]
10 | COC(=O)CSc1nc(N)c(C#N)c(-c2ccco2)c1C#N | 8.91 µM [falling, partial curve, poor fit] | 
11 | O=C(O)c1ccc(S(=O)(=O)/N=C2\C=C(Nc3ccccc3F)C(=O)c3ccccc32)cc1 | 3.98 µM [falling, full curve] | 
12 | COc1cc(C)c(NC(=S)Nc2cccc(Cl)c2)cc1OC | 23.1 µM [rising, single point] | 
13 | COc1cc(OC)cc(C(=O)NC2CCN(C(=O)N3c4ccccc4Sc4ccccc43)CC2)c1 | 3.55 µM [rising, partial curve, poor fit] | 
14 | Cc1ccc(NC(=S)NCc2ccco2)c(C)c1 | 35.5 µM [rising, single point] | 
15 | O=C(NCCN1CCOCC1)c1ccncc1 | 29.1 µM [rising, single point] | 
16 | O=C(/C=C/c1ccco1)Nc1ccc(Cl)c(S(=O)(=O)N2CCOCC2)c1 | 15.8 µM [falling, single point] | 

Row | SMILES | AC50 [1] | AC50 [2]
17 | CCOC(=O)c1nn(-c2ccc(Cl)cc2Cl)c(=N)c(C#N)c1C | 5.62 µM [rising, single point] | 
18 | Cc1ccc(C(=O)NCc2cccnc2)cc1S(=O)(=O)Nc1ccccc1 | 35.5 µM [rising, single point] | 
19 | CCC(C(=O)NC1CCCC1)N(Cc1ccc2c(c1)OCO2)C(=O)c1snc(C(N)=O)c1N (centres undefined) | 1.41 µM [falling, partial curve, poor fit] | 
20 | Cc1ccc(OCC(=O)O/N=C(\N)c2cccnc2)cc1 | 0.562 µM [rising, partial curve, poor fit] | 
21 | COCCNC(=S)N/N=C(\C)c1ccccc1O | 16.4 µM [rising, partial curve] | 
22 | O=C(COc1ccc2c(c1)CCC2)N1CCc2ccccc21 | 35.5 µM [falling, single point] | 
23 | O=C(COC(=O)COc1ccccc1)NC1CCCC1 | 23.1 µM [rising, single point] | 
24 | O=C1CN(C(=O)c2ccc(Br)o2)C(c2ccccc2)c2cc(Br)ccc2N1 (centres undefined) | 11.2 µM [falling, partial curve] | 12.6 µM [rising, partial curve, poor fit]
25 | Cc1ccc(NC(=O)CNC(C)c2ccccc2)cc1 (centres undefined) | 5.01 µM [rising, full curve] | 
26 | CCn1c(SCC(=O)Nc2cccc(NC(C)=O)c2)nnc1C(C)C | 29.1 µM [rising, single point] | 
27 | Cc1nn(C(=O)c2ccco2)c(C)c1Sc1ccc([N+](=O)[O-])cc1 | 4.11 µM [rising, single point] | 
28 | N#Cc1ccc(Oc2cnccn2)cc1 | 25.1 µM [rising, partial curve, poor fit] | 
29 | Fc1cccc(COc2ccccc2C(=S)N2CCCC2)c1 | 0.112 µM [rising, full curve, poor fit] | 
30 | S=c1[nH]nc(-c2cc(-c3ccccc3)n[nH]2)n1/N=C/c1c2ccccc2cc2ccccc12 | 35.5 µM [falling, single point] | 
31 | COc1ccc(NC(=O)C2CCCN(C(=O)Nc3ccc(OC)cc3)C2)cc1 (centres undefined) | 35.5 µM [rising, single point] | 

Quoted from above, entries 17 to 18
Row | SMILES | AC50 [1] | AC50 [2]
17 | CCOC(=O)c1nn(-c2ccc(Cl)cc2Cl)c(=N)c(C#N)c1C | 5.62 µM [rising, single point] | 
18 | Cc1ccc(C(=O)NCc2cccnc2)cc1S(=O)(=O)Nc1ccccc1 | 35.5 µM [rising, single point] | 
